# Patent publication US20110003314A1, “Hapten, Immunogens and Derivatives of Ascomycin Useful for Preparation of Antibodies and Immunoassays” (MICROGENICS CORPORATION, priority 2004, published 2011)
# At least one structure is not confirmed: it was looked up by name or label, or the drawing left a doubt. Some results were stated once for a whole list of compounds, not compound by compound.
# Key:
# [1] = system: monoclonal antibody 1H6; conditions: reported by Kasper et al.; cited from earlier work
# [2] = system: monoclonal antibody produced by hybridoma line 28E2; assay: CEDIA tacrolimus assay specificity (cross-reactivity); format: binding, mice; conditions: other immunosuppressants in whole blood, tested concentration 30 ng/ml
# Procedure: Antibodies obtained using any of the aforementioned techniques are screened or purified not only for their ability to bind specifically with tacrolimus, but also for low cross-reactivity with potential interfering substances. “Cross reactivity” is determined in a quantitative immunoassay by establishing a standard curve using known dilutions of tacrolimus or ascomycin. […] The percent (%) cross-reactivity is the measured concentration divided by the tested concentration multiplied by 100.
# If tacrolimus is present in the sample, it binds to the antibody, leaving the ED portion of the competing conjugate free to restore enzyme activity upon complementation reaction with enzyme acceptor (EA) fragments in the assay reaction mixture. The active enzyme is then capable of producing a quantifiable reaction product when exposed to appropriate substrate. […] The amount of reaction product and resultant absorbance change are proportional to the amount of drug in the sample.
# Each of four naturally occurring metabolites of tacrolimus, at a concentration of approximately 20 ng/ml, was added separately to a whole blood specimen. […] The cross reactivity of the metabolites was calculated as:
# (measured concentration)/20ng/ml×100% […]
Structure (SMILES),cross-reactivity of monoclonal antibody 1H6 [1],% Cross-Reactivity [2]
"C=CCC1C=C(C)CC(C)CC(O)C2OC(O)(C(=O)C(=O)N3CCCCC3C(=O)OC(C(C)=CC3CCC(O)C(OC)C3)C(C)C(O)CC1=O)C(C)CC2OC (stereo not drawn) [15-O-demethyl-T, 15-O-demethyl tacrolimus]",greater than or equal to 5%,–
"C=CCC1C=C(C)CC(C)CC(OC)C2OC(O)(C(=O)C(=O)N3CCCCC3C(=O)OC(C(C)=CC3CCC(O)C(O)C3)C(C)C(O)CC1=O)C(C)CC2OC (stereo not drawn) [31-O-demethyl-T, 31-O-demethyl tacrolimus]",greater than or equal to 5%,–
"CO[C@H]1C[C@@H]2CC[C@@H](C)[C@@](O)(O2)C(=O)C(=O)N2CCCC[C@H]2C(=O)O[C@H]([C@H](C)C[C@@H]2CC[C@@H](O)[C@H](OC)C2)CC(=O)[C@H](C)/C=C(\C)[C@@H](O)[C@@H](OC)C(=O)[C@H](C)C[C@H](C)/C=C/C=C/C=C/1C [Sirolimus (rapamycin), Sirolimus]",–,0.7%
